# Results: PubChem BioAssay AID493014 (National Center for Advancing Translational Sciences (NCATS), 2011)
# The other results are listed elsewhere or left out. Shown are side measurements of this screen, not its main read-out; they come without a call. Compounds called inactive in the main read-out are mostly missing here. The note in brackets gives the kind of curve behind each potency; many fits are weak.
# Assay: qHTS Assay to Find Inhibitors of Chronic Active B-Cell Receptor Signaling
# Conditions: ABC-DLBCL IkBa-CBG/CBR reporter, luminescence ratio (green luciferase fused to IkBa over red control in TMD8 lymphoma cells), 4 h
# How it was run: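 TMD8 ABC-DLBCL cells carrying doxycycline-inducible green luciferase fused to IkappaBalpha plus unfused red luciferase were exposed to compounds (up to 46 uM) for 4 hrs at 37C. Activity came from the overlap-corrected green/red luminescence ratio.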
# [1] = measured here: CBR red luminescence, cell number
SMILES,AC50 [1],AC50 (measured here: IkBa-CBG green luminescence)
CS(=O)(=O)NNP(=O)(NNS(C)(=O)=O)NC(=O)c1ccccc1,"2 µM [falling, full curve]",
C=CCn1c(O)c(Cc2ccc(OCC)cc2)c(=O)[nH]c1=O,"35.5 µM [rising, single point]",
COc1ccc(S(=O)(=O)NCCc2sc3nc(-c4ccc(C)cc4)nn3c2C)cc1F,"11.2 µM [falling, single point]",
O=C(Cn1cc(C(=O)c2ccccc2)c2ccccc21)NCc1ccco1,"15.8 µM [falling, partial curve, poor fit]",
CC(=O)c1ccccc1NC(=O)C1C2CCC(O2)C1C(=O)O (configuration not stated),"29.1 µM [rising, single point]",
Cc1c(C(c2ccc(Br)cc2)c2c(O)c3ccccc3oc2=O)c(=O)n(-c2ccccc2)n1C (configuration not stated),"11.2 µM [falling, partial curve, poor fit]",
COc1ccc(CN2CCc3ccc(NC(=O)CCc4ccccc4OC)cc3C2)c(O)c1,"10 µM [falling, partial curve, poor fit]",
COC(=O)C1=C(c2ccccc2OCc2ccccc2)C[C@@H]2CC[C@H]1N2C(=O)NC1CCN(Cc2ccccc2)CC1,"16.4 µM [falling, partial curve, poor fit]",
CCOP(=O)(OCC)C(NC(=O)Nc1ccc(Cl)cc1)C(N)=O (configuration not stated),"5.8 µM [rising, full curve]",
O=C(N/N=C\C1C(=O)NC(=S)N(c2ccccc2)C1=O)c1ccc(O)cc1 (configuration not stated),"0.794 µM [falling, full curve]",
COC(=O)C[C@]1(C(=O)OC)CN(C#N)N(c2ccc(Cl)cc2)C12c1ccccc1-c1ccccc12,"1.46 µM [falling, full curve]",
Cc1ccc(Cn2cccc(C(=O)Nc3cc(C)on3)c2=O)cc1,,"2.82 µM [rising, full curve, poor fit]"
O=[As](O)(O)c1ccc(N=Nc2ccc(O)cc2)cc1,"35.5 µM [falling, single point]",
CN1CCN(c2nc(N)c(Br)c(Cl)n2)CC1,"25.1 µM [rising, single point]",
O=C(CCN1C(=O)/C(=C/c2ccc(F)cc2)SC1=S)NCCc1cnc[nH]1,"11.2 µM [falling, partial curve]",
COc1cc(C)c(CNCCc2c[nH]c3ccccc23)cc1C,"11.2 µM [falling, partial curve]",
Fc1ccc(Cn2nnnc2CN2CCC(n3nnc4cc(C(F)(F)F)ccc43)CC2)cc1,"1 µM [falling, partial curve, poor fit]",

# An excerpt of these results, bar-delimited.
SMILES | AC50 [1] | AC50 (measured here: IkBa-CBG green luminescence)
CN1CCN(c2nc(N)c(Br)c(Cl)n2)CC1 | 25.1 µM [rising, single point] | 
Fc1ccc(Cn2nnnc2CN2CCC(n3nnc4cc(C(F)(F)F)ccc43)CC2)cc1 | 1 µM [falling, partial curve, poor fit] | 
